Measured values as given in paper PMC6176016.
These are yes or no findings as the source states them, for the method shown. Binding seen in cells or lysates may run through a third protein. Binding can be weak; no strength is given. Sequences can lack the tags named with a protein.

What was measured:
[1] = target: T1, TACI-L (long TACI isoform) labeled with mCherry or YFP (human) (UniProt O14836); assay: FRET or BRET; YFP and mCherry labeled proteins co-transfected (1 ug of each plasmid) into HEK-293T cells, 48 h, FRET signal read by FACS (LSRII or LSRFortessa); adding rhAPRIL or rhBAFF had no effect on the TACI-TACI signal
T1 sequence: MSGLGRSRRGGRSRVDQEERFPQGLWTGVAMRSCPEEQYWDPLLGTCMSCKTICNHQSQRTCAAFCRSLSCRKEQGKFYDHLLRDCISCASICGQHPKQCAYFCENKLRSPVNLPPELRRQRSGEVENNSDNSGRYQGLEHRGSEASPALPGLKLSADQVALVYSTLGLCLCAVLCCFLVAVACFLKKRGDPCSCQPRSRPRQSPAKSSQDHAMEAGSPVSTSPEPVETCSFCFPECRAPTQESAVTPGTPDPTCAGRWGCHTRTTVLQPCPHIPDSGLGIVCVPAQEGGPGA

[2] = target: T2, TACI-S (short TACI isoform) labeled with mCherry or YFP (human) (UniProt O14836); assay: as above
T2 sequence: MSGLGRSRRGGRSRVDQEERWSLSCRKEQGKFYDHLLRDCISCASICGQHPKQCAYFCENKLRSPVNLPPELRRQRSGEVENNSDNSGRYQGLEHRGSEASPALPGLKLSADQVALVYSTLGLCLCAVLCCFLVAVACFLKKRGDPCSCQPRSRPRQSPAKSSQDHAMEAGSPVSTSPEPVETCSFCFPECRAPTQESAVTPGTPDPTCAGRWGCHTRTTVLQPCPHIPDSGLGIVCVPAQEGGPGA

| binding [1] | binding [2] | Substance |
| --- | --- | --- |
| binds | binds | TACI-S S194X, mCherry labeled (human) (receptor) |
| binds | binds | TACI-S C104R, mCherry labeled (human) (receptor) |
| binds | binds | TACI-S A181E, mCherry labeled (human) (receptor) |
